# PubChem BioAssay AID1688 (National Center for Advancing Translational Sciences (NCATS), 2009)
# Values joined by “and” are separate entries in the source; they are usually repeats but may differ in a detail not shown here. Equal entries are not always repeated. Hit rate of the full screen: of about 220,000 compounds, about 2,400 (1.1%) were called active. The inconclusive results got no clear call from the source; some entries with a clear call stand among them for comparison. Calls come from the whole dose curve; as a rule, active = well fitted inhibition curve with a large enough effect; inconclusive = small, poorly fitted or top-dose-only effect, or effect the other way; inactive = no such curve, though single readings can be large or run the other way. Potencies of inconclusive entries are doubtful fits and often do not repeat.
# Test: qHTS Multiplex Assay to Identify Dual Action Probes in a Cell Model of Huntington: Aggregate Formation (GFP); note: nearly all actives have a fitted effect of over 60% in size
# Conditions: PC12 HttQ103-GFP aggregates, Acumen cytometry, 40 h; activity change, negative = inhibition: at 46.1 µM (top of the series) unless noted
# Outline: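 Steps: seed 1500 PC12 HTTQ103-GFP cells/well; add tebufenozide, 100 nM final; add compound titration; add ATPLite reagent; quantify GFP aggregates by laser scanning cytometry.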
# % is set by controls: 0 for no effect and ±100 for the full control effect; potency is the fitted concentration of half-maximal effect.
Structure (SMILES),Potency,"activity change, negative = inhibition"
CC1(C)Cc2c(sc3c2c(=N)n(Cc2ccco2)c(=O)n3Cc2ccc(F)cc2)CO1,"inconclusive: 12.6 µM [inhibitor, single point]",
Cc1[nH]c2ccccc2c1/C=N/NC(N)=S,,inactive: -4.01% [at 9.22 µM]
O=C(Nc1ccc(N2CCN(C(=O)c3ccco3)CC2)c(Cl)c1)c1c(F)c(F)c(F)c(F)c1F,"inconclusive: 35.5 µM [inhibitor, single point]",
Cc1ccc(SCc2[nH]nc3c2C(C(C)C)C(C#N)=C(N)O3)cc1 (centres undefined),"inconclusive: 0.562 µM [activator, full curve, poor fit]",
Cc1ccc(N(CC(=O)Nc2ccccc2-c2ccccc2)S(=O)(=O)c2ccccc2)cc1,,inactive: -15.6%
O=C(Nc1ccc(S(=O)(=O)Nc2nccs2)cc1)c1cc(-c2ccccc2Cl)nc2ccccc12,"inconclusive: 35.5 µM [activator, single point]",
Cc1cc(OCCOCCN2CCCC2)ccc1C(C)C,"inconclusive: 0.316 µM [inhibitor, full curve, poor fit]",
O=C(CSc1nnc(Cn2c(=O)sc3ccccc32)n1-c1ccccc1)NCC1CCCO1 (centres undefined),,inactive: -21.7%
O=Cc1ccccc1OCCOc1ccccc1C=O,active: 35.5 µM,
S=C(NCc1ccccc1)NCC1COc2ccccc2O1 (centres undefined),"inconclusive: 0.708 µM [activator, single point]",
COC(=O)c1cc(-c2c[nH]c3ccccc23)n[nH]1,"inconclusive: 0.1 µM [inhibitor, full curve, poor fit]",
Cc1ccc(OCC(=O)Nc2ccc(F)cc2)cc1C,,inactive: -6.1%
COC(=O)c1c(NC(=O)c2cccc([N+](=O)[O-])c2)sc(C(N)=O)c1C,"inconclusive: 4.47 µM [activator, full curve, poor fit]",
Cc1cc(C)nc(Sc2ccc(C=O)cc2[N+](=O)[O-])n1,,inactive: 0.602% [at 9.22 µM]
c1ccc(Cc2nn3c(Cn4nnc5ccccc54)nnc3s2)cc1,,inactive: -14.5%
C[n+]1c2n(c3ccccc31)N=C(c1ccc(Br)cc1)CS2,active: 31.6 µM,
COc1ccc(OC)c(CN(CCN2CCOCC2)C(=O)Nc2cccc(Cl)c2)c1,"inconclusive: 0.562 µM [inhibitor, partial curve]",
Cc1ccc(N/N=C(/Sc2nnnn2-c2ccccc2)C(=O)c2ccccc2)cc1,,inactive: 10.5%
Cc1ccc(C(=O)N/C(=C/c2cn(-c3ccccc3)nc2-c2ccccc2)C(=O)O)cc1,,inactive: -5.26%
N=C(N)c1ccc(OCCCCCOc2ccc(C(=N)N)cc2)cc1,"inconclusive: 35.5 µM [inhibitor, single point] and inconclusive: 28.2 µM [inhibitor, single point]",
CCCCN(C)C(=O)c1oc2ccc(S(=O)(=O)N3CCCCCC3)cc2c1C,"inconclusive: 35.5 µM [inhibitor, single point]",
COc1ccc(-c2nn(-c3ccccc3)cc2C(=O)Nc2nc(CC(C)=O)ns2)cc1,"inconclusive: 31.6 µM [inhibitor, single point]",
COc1cc(COc2ccc3c(C)c(Cc4ccccc4)c(=O)oc3c2C)cc(OC)c1OC,"inconclusive: 35.5 µM [inhibitor, single point]",

Structure (SMILES),Potency,"activity change, negative = inhibition"
CC(C)OC(=O)c1c(NS(=O)(=O)c2ccccc2)sc2c1CCCC2,"inconclusive: 15.8 µM [inhibitor, single point]",
COc1ccc(-n2c(SCC(=O)Nc3nccs3)nc3c(c2=O)SC(C)C3)cc1 (centres undefined),"inconclusive: 0.562 µM [activator, full curve, poor fit]",
N#Cc1c(Nc2ccc(F)cc2)sc(C(=O)c2ccccc2)c1N,"inconclusive: 3.16 µM [inhibitor, partial curve]",
CCCn1c(SCC(=O)Nc2nc3c(s2)CCCC3)nc2c1c(=O)n(C)c(=O)n2C,"inconclusive: 2.82 µM [inhibitor, full curve, poor fit]",
CCC(=O)N1CCCc2cc(S(=O)(=O)N3CCN(c4ccccc4F)CC3)ccc21,"inconclusive: 11.2 µM [inhibitor, partial curve]",
CC(=O)c1c(C)[nH]c(C(=O)COc2cc(C)cc(C)c2)c1C,,inactive: -16.6%
O=C(c1cc2c(s1)CCCC2)N1CCN(S(=O)(=O)c2ccccc2C(F)(F)F)CC1,"inconclusive: 35.5 µM [inhibitor, partial curve, poor fit]",
C=CCn1c(SCC(=O)NCCOC)nnc1-c1cc2c(s1)CCC(CC)C2 (centres undefined),,inactive: -26.6%
COc1ccc(S(=O)(=O)Nc2cccc(/C=C/C(=O)O)c2)cc1,"inconclusive: 0.794 µM [inhibitor, single point]",
COC(=O)Nc1nc2ccc(C(=O)c3ccccc3)cc2[nH]1,"inconclusive: 5.62 µM [inhibitor, partial curve, poor fit]",
Cc1cc(C)c2c(N)c(C(=O)NN3CC(=O)N(c4cccc(Cl)c4)CC3=O)sc2n1,,inactive: -5.24% [at 9.22 µM]
CCOc1ccc(NC(=S)NC(C)c2cccs2)cc1 (centres undefined),,inactive: -9.65%
Cn1c(=O)[nH]c(=O)c2c1nc(Sc1nc3ccccc3s1)n2Cc1ccccc1,,inactive: -18.1%
Cc1ccc(N/C=C/C(=O)c2ccco2)c(O)c1,,inactive: -29.2% [at 9.22 µM]
CCCc1sc(N/N=C/c2ccccn2)nc1-c1ccc(F)cc1,"inconclusive: 3.98 µM [inhibitor, full curve, poor fit]",
CCOC(=O)c1[nH]nc(-c2cc(CC)c(O)cc2O)c1-c1cscn1,,inactive: 12.8%
CCOC(=O)CSC1=C(C#N)C(c2ccc(F)cc2)C(C(C)=O)=C(C)N1 (centres undefined),"inconclusive: 6.31 µM [inhibitor, single point]",
CC(C)(O)C#Cc1ccc(C(=O)N2CCN(c3ccc([N+](=O)[O-])cc3)CC2)cc1,"inconclusive: 25.1 µM [inhibitor, single point]",
O=c1c2ccccc2nc(-c2cccs2)n1-c1cccc2ccccc12,"inconclusive: 35.5 µM [inhibitor, single point]",
Cc1ccc(-c2csc3nnc(SCC(=O)Nc4nsc(-c5ccccc5)n4)n23)cc1,"inconclusive: 14.1 µM [inhibitor, partial curve]",
CC(=O)c1cnc2cc(C)nn2c1C,,inactive: 7.05%
O=C(CSc1nnc(-c2ccccc2)o1)NC1CCCCC1,,inactive: -8.69%
CCCc1nc2ccccc2c(=O)n1NC(=O)c1c(O)c2cccc3c2n(c1=O)CCC3,"inconclusive: 5.62 µM [inhibitor, single point]",

# Some of these compounds in order of heavy-atom count, rising:
Structure (SMILES),Potency,"activity change, negative = inhibition"
COc1ccc(S(=O)(=O)Nc2cccc(/C=C/C(=O)O)c2)cc1,"inconclusive: 0.794 µM [inhibitor, single point]",
CC(C)(O)C#Cc1ccc(C(=O)N2CCN(c3ccc([N+](=O)[O-])cc3)CC2)cc1,"inconclusive: 25.1 µM [inhibitor, single point]",
CCCn1c(SCC(=O)Nc2nc3c(s2)CCCC3)nc2c1c(=O)n(C)c(=O)n2C,"inconclusive: 2.82 µM [inhibitor, full curve, poor fit]",

# Remaining list, next part.

Structure (SMILES),Potency,"activity change, negative = inhibition"
CN1CCC2(CC1)N=C(c1ccc(F)cc1)C(=S)N2C(=O)c1ccc(C(C)(C)C)cc1,"inconclusive: 35.5 µM [activator, partial curve, poor fit]",
CNC(=O)/C(C#N)=C/c1c(N(Cc2ccccc2)Cc2ccccc2)nc2ccccn2c1=O,"inconclusive: 15.8 µM [inhibitor, single point]",
CNC(=O)c1oc(-c2ccccc2)nc1C,,inactive: -15.2% [at 9.22 µM]
COC(=O)CCC(=O)N1CCCC(CNS(=O)(=O)c2ccc(OC)cc2)C1 (centres undefined),,inactive: 5% [at 9.22 µM]
Cc1onc(-c2ccccc2Cl)c1C(=O)NC(=S)Nc1ccccc1F,,inactive: -5.69% [at 9.22 µM]
COc1ccc(C(=O)OCC(=O)NCc2ccc3c(c2)OCO3)cc1[N+](=O)[O-],,inactive: -6.54%
Cc1cc(C)cc(NC(=O)NCC(O)COc2ccc([N+](=O)[O-])cc2)c1 (centres undefined),,inactive: 7.62% [at 9.22 µM]
Cc1ccc(Nc2nc(CSc3nnc(-c4ccncc4)n3-c3ccccc3C)cs2)cc1,"inconclusive: 39.8 µM [inhibitor, partial curve, poor fit]",
COc1ccc(CCNC(=O)CN(C2CCCCC2)S(C)(=O)=O)cc1OC,"inconclusive: 6.31 µM [inhibitor, partial curve, poor fit]",
N#CC(C#N)=C1C=CC=CN1/C(=C\c1ccco1)C(=O)c1ccc(Br)cc1,"inconclusive: 35.5 µM [inhibitor, single point]",
COc1ccc(C(=O)NCCc2nnc(SCC(=O)Nc3ccc(Br)cc3)n2C)cc1,,inactive: 1.73%
CCCNC(=O)c1nnsc1S(=O)c1ccc(Cl)cc1 (centres undefined),active: 11.2 µM,
O=C(COC(=O)c1cccc(F)c1)Nc1cccnc1Cl,,inactive: 8.11%
c1cc2c(cnc3cscc32)s1,"inconclusive: 8.91 µM [inhibitor, partial curve]",
CCN1C(=O)c2cccc3c(S(=O)(=O)NCc4ccccn4)ccc1c23,"inconclusive: 11.2 µM [activator, partial curve]",
CCC(C)Nc1nc(C)nc2c1oc1ccccc12 (centres undefined),,inactive: 33.8% [at 9.22 µM]
COc1ccccc1CNC(=O)c1ccc(-c2ccccc2)cc1,"inconclusive: 5.62 µM [inhibitor, single point]",
CC1CC(C)CN(C(=O)CSc2nc(Cc3cccs3)nc3ccccc23)C1 (centres undefined),"inconclusive: 35.5 µM [inhibitor, single point]",
Cc1ccc(NC(=O)NCC2CCN(Cc3cccc(Cl)c3)CC2)cc1Cl,"inconclusive: 35.5 µM [inhibitor, single point]",
Cc1cc(C)c(S(=O)(=O)N2CCOC2CNC(=O)C(=O)NCCCn2ccnc2)c(C)c1 (centres undefined),,inactive: -21.2% [at 9.22 µM]
CC(O)/C=C/c1ccc2ccccc2n1 (centres undefined),"inconclusive: 35.5 µM [inhibitor, single point]",
O=C1C=CC(=O)N1c1ccc(OC(F)F)cc1,"inconclusive: 35.5 µM [inhibitor, single point]",
COC(=O)[C@H](C)NC(=O)Nc1cccc(Br)c1,,inactive: -3.13% [at 9.22 µM]
